Laboratory results published in paper PMC5454392, “Selective BET bromodomain inhibition as an antifungal therapeutic strategy” (Nature Communications, 2017).

Test system: C. albicans
Test: C. albicans growth assay in liquid media
Assay type: cell-based
Experimental: Growth on liquid media. C. albicans strains were grown at 30 °C in SC medium to an OD600 of 0.5–0.8. For the evaluation of growth defects related to Bdf1 mutations, log-phase growing cells were counted using a Neubauer chamber and diluted in liquid media to a final concentration of 5,400 cells per ml per well in a sterile 96-well plate. Dox (50 μg ml^−1) or methionine (5 mM)/cysteine (0.25 mM) were added to the media if required. Plates were incubated at 30 °C and OD600 was measured using a Multiskan FC Microplate Photometer (Thermo Fisher). For the evaluation of chemical compounds, strains were grown in SC medium supplemented with 50 μg ml^−1 Dox or 5 mM methionine/0.25 mM cysteine 24 h before counting and then seeded in 96-well plates at the same concentration as mentioned above, with or without chemical compounds. Statistical tests were performed using two-sided Welch t-tests.

CN1C(=O)c2ccccc2Sc2cc(NC(=O)C3CCCO3)ccc21 (centres unmarked) [Compound 3]
cell shift of EC50 relative to the IC50 value determined by HTRF: 20 fold | cell shift of EC50 relative to the Kd by ITC: sevenfold
